From publication doi:10.1101/2020.09.06.284745
These are yes or no findings as the source states them, for the method shown. Some binding calls cover weakened binding; strength is not graded here.

Key:
[1] = target: T1, RAPTOR1B (Regulatory-associated protein of TOR 1B) (Arabidopsis thaliana) (UniProt Q93YQ1); assay: two-hybrid
T1 sequence: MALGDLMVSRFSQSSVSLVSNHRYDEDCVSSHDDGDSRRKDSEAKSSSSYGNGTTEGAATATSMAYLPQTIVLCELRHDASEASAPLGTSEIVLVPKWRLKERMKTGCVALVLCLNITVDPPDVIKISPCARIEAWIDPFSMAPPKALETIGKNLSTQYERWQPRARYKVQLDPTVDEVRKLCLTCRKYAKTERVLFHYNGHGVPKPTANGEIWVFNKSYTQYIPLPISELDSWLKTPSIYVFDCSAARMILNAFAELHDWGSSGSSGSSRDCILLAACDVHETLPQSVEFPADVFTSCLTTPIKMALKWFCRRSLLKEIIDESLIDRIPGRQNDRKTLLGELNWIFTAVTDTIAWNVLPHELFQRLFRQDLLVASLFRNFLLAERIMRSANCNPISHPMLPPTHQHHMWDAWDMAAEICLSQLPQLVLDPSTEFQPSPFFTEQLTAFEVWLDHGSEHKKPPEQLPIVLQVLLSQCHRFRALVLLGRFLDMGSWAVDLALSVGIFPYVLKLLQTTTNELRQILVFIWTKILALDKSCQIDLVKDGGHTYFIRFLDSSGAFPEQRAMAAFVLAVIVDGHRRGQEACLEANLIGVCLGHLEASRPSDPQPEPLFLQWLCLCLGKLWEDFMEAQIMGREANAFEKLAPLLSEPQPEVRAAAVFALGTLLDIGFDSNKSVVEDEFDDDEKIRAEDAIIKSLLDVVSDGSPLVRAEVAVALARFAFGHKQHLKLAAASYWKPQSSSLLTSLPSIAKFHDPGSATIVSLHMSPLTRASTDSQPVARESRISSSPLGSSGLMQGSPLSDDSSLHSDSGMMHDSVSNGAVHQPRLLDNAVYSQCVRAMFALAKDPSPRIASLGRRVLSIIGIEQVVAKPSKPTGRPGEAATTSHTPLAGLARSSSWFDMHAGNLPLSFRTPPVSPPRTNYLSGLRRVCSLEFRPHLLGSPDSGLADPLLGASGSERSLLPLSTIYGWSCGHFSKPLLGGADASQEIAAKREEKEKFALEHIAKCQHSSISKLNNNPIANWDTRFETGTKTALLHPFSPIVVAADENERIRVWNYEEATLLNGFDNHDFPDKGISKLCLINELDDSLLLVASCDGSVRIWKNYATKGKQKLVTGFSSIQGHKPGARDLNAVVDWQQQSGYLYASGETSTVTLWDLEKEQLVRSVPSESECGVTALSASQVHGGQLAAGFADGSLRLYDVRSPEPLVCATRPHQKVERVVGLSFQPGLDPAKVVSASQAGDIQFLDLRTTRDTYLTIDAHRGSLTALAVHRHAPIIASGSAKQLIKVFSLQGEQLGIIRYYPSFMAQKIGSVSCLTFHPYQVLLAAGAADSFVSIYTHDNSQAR

[2] = target: T2, SnRK1α1 Ubiquitin-associated domain (UBA) (Arabidopsis thaliana) (UniProt Q38997); assay: two-hybrid
T2 sequence: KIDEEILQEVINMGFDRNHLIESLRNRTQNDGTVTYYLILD

B1: FCS-Like Zinc Finger 8 (FLZ8) (protein, UniProt Q8L471 1-267)
chain: MLKKRSRSKQALMAETNQSQNQKQSKTTPFPRLFTAFSSFKSFTENDAVASPTSILDTKPFSVLKNPFGSDNPKTQEPETRLKLEPKRIGLAIVDSLIQDETPEPGPRSGTILFGSQLRIRVPDSPISSSDFGIKTRNSQPETKKPGSESGLGSPRIISGYFPASDMELSEDYTCVTCHGPNPRTIHIFDNCIVESQPGVVFFRSSDPVNESDSDYSPPDSFLSCCCNCKKSLGPRDDIFMYRGDRAFCSSECRSIEMMMSEENDTK
With B1 the binding [1] was “binds” and the binding [2] was “binds”.
